Experimental data as given in article doi:10.1101/812990.
Where two headings read alike, the source gives them in different places. No constants are given. Whether binding was seen depends on the method and setting. In cells and extracts the contact can be indirect. Some results given as binding are weak or reduced against the parent protein; the word gives no strength.

Chains of the proteins cited; added tags and fusions are not shown.
UniProt Q9ESK9: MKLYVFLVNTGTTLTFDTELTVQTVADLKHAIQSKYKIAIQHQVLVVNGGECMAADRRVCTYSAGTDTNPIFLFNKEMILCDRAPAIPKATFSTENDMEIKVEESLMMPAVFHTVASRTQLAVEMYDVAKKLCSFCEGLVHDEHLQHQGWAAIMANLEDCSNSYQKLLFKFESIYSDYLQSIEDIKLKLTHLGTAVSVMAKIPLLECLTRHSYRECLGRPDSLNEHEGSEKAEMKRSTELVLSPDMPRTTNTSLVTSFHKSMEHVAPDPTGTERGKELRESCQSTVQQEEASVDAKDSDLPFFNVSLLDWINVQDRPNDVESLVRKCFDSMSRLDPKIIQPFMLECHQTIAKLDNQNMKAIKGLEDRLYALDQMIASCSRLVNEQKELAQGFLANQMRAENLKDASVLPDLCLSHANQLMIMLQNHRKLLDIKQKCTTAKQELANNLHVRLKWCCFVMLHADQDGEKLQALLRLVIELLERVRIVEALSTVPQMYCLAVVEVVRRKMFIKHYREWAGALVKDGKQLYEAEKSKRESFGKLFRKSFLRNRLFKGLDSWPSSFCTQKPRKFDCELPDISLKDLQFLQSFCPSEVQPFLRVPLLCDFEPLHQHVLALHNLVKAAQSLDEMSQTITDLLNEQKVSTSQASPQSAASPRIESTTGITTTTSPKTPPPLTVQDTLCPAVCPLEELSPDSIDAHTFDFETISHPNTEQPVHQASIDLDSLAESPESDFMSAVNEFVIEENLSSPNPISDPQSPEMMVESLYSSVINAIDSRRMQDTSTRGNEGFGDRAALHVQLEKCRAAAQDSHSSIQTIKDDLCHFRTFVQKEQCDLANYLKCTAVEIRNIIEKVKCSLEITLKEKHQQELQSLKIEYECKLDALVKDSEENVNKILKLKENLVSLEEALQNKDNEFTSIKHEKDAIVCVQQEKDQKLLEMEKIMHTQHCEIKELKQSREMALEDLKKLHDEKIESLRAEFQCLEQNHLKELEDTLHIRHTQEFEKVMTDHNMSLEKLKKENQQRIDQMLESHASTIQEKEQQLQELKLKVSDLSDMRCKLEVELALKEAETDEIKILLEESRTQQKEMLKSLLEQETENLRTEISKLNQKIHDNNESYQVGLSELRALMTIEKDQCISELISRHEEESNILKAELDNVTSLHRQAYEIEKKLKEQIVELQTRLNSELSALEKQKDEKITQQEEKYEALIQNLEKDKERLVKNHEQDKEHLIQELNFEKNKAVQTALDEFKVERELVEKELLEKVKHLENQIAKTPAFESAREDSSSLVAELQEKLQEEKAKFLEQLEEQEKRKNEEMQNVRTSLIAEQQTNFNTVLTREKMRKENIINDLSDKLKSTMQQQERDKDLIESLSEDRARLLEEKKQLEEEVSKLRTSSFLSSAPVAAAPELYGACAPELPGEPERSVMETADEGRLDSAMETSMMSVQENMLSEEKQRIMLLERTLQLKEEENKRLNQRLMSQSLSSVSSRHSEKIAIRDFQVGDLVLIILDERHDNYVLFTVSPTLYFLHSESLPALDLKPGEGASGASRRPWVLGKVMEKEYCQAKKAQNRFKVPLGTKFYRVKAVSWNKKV
UniProt O88597: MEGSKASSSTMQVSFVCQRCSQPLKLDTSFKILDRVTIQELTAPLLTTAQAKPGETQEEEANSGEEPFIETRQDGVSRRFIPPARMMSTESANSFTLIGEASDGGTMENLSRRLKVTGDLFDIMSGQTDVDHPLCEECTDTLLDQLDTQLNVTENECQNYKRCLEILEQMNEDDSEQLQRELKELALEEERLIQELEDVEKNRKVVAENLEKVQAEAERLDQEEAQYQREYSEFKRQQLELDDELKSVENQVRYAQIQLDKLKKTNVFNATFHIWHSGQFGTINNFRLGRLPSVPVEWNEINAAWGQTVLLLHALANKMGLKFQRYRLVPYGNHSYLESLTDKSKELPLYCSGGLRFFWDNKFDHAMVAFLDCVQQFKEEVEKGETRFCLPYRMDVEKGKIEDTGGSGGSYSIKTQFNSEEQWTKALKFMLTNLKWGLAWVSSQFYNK

How the values were obtained:
Test in all cases: co-IP
[1] = molecular target: Fip200 (mouse (endogenous in NIH-3T3 cells or primary C57BL/6J hepatocytes)) (UniProt Q9ESK9)
[2] = molecular target: T1, Plin3 (mouse (endogenous in NIH-3T3 cells or primary C57BL/6J hepatocytes)) (UniProt Q9DBG5)
T1 sequence: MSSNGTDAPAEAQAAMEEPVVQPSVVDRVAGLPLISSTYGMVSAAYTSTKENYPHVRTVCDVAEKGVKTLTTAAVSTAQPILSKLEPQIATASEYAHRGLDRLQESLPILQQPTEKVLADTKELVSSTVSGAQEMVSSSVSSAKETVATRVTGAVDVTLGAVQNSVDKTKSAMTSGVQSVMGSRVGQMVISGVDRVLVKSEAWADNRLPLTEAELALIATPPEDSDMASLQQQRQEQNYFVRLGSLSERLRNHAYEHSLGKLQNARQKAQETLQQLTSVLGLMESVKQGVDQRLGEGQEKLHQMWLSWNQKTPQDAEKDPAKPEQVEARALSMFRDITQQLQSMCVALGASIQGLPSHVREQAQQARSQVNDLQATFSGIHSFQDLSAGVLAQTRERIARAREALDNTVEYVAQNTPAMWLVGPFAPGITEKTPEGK

[3] = molecular target: T1, Plin3 (mouse (endogenous in NIH-3T3 cells or primary C57BL/6J hepatocytes)); remark: listed apart in the source

binding [1] | binding [2] | binding [3] | Substance
binds | – | – | Beclin 1 (from UniProt O88597 1-448)
– | binds | binds | Fip200 (from UniProt Q9ESK9 1-1588)
